Measurements from the supplement of paper PMC9233669.
Variants at the background level are over-represented here.

Legend:
biotinyl-Leu-oxazolone = assay: self-aminoacylation, catalytic enhancement (BLO) (fold over background); higher = more active; k-Seq, kA / k0A0; sequences stand for … in GGGAAUGGAUCCACAUCUACGAAUUC…UUCACUGCAGACUUGACGAAGCUG
Method in brief: (§1)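 Catalytic enhancement equals the median kA over the uncatalyzed rate, the latter read from the low-activity peak of a bimodal Gaussian fit. Values of kA came from fitting each sequence's fraction reacted to a pseudo-first-order model, with 1000 bootstraps. Reacted RNA was captured with streptavidin and quantified by triplicate qPCR and Illumina sequencing after 90 minutes at room temperature with 2–1250 μM biotinyl-aminoacyl-oxazolone and 0.43 μM mutagenized RNA pools bearing a 21-nt variable region.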

biotinyl-Val-oxazolone = assay: self-aminoacylation, catalytic enhancement (BVO) (fold over background); higher = more active; k-Seq, kA / k0A0; sequences stand for … in GGGAAUGGAUCCACAUCUACGAAUUC…UUCACUGCAGACUUGACGAAGCUG
Method in brief: as §1

biotinyl-Ile-oxazolone = assay: self-aminoacylation, catalytic enhancement (BIO) (fold over background); higher = more active; k-Seq, kA / k0A0; sequences stand for … in GGGAAUGGAUCCACAUCUACGAAUUC…UUCACUGCAGACUUGACGAAGCUG
Method in brief: as §1

biotinyl-Phe-oxazolone = assay: self-aminoacylation, catalytic enhancement (BFO) (fold over background); higher = more active; k-Seq, kA / k0A0; sequences stand for … in GGGAAUGGAUCCACAUCUACGAAUUC…UUCACUGCAGACUUGACGAAGCUG
Method in brief: as §1

biotinyl-Trp-oxazolone = assay: self-aminoacylation, catalytic enhancement (BWO) (fold over background); higher = more active; k-Seq, kA / k0A0; sequences stand for … in GGGAAUGGAUCCACAUCUACGAAUUC…UUCACUGCAGACUUGACGAAGCUG
Method in brief: as §1

biotinyl-Met-oxazolone = assay: self-aminoacylation, catalytic enhancement (BMO) (fold over background); higher = more active; k-Seq, kA / k0A0; sequences stand for … in GGGAAUGGAUCCACAUCUACGAAUUC…UUCACUGCAGACUUGACGAAGCUG
Method in brief: as §1

| Sequence | self-aminoacylation (biotinyl-Leu-oxazolone) | self-aminoacylation (biotinyl-Val-oxazolone) | self-aminoacylation (biotinyl-Ile-oxazolone) | self-aminoacylation (biotinyl-Phe-oxazolone) | self-aminoacylation (biotinyl-Trp-oxazolone) | self-aminoacylation (biotinyl-Met-oxazolone) |
| --- | --- | --- | --- | --- | --- | --- |
| CCACAUUUCAAGCAAUCGAUC [Fam1B.1 aminoacylation ribozyme variant] | 0.689 | 0.951 | 0.834 | 0.898 | 0.66 | 0.642 |
| CCACCCUUCAAGCAAACGGUC [Fam1B.1 aminoacylation ribozyme variant] | 0.789 | 0.911 | 0.73 | 0.74 | 0.681 | 0.611 |
| CCACCCUUCAAGCAAUAGGUC [Fam1B.1 aminoacylation ribozyme variant] | 0.529 | 0.711 | 0.645 | 0.807 | 0.452 | 0.575 |
| CCACGCUUCAAGCAAUCGAUC [Fam1B.1 aminoacylation ribozyme variant] | 0.408 | 0.625 | 0.411 | 1.8 | 0.843 | 0.363 |
| CCACUCUCCAAGCAAUCGGUC [Fam1B.1 aminoacylation ribozyme variant] | 0.968 | 1.06 | 1.34 | 1.24 | 1.19 | 1.25 |
| CCACUCUUCAAGCAAACGGUC [Fam1B.1 aminoacylation ribozyme variant] | 0.781 | 0.856 | 0.809 | 0.873 | 0.517 | 0.695 |
| CCACUCUUCAAGCAAUCCGUC [Fam1B.1 aminoacylation ribozyme variant] | 0.701 | 1.12 | 1.06 | 0.865 | 1.44 | 0.765 |
| CCACUCUUCCAGCAAUCGGUC [Fam1B.1 aminoacylation ribozyme variant] | 1.19 | 1.5 | 1.32 | 1.01 | 0.87 | 1.28 |
| CCACUCUUCUAGCAAUCGGUC [Fam1B.1 aminoacylation ribozyme variant] | 0.692 | 0.977 | 0.867 | 1.02 | 0.765 | 0.745 |
| CCACUUCAAACAUUCGGUCUG [Fam1A.1 aminoacylation ribozyme variant] | 1.46 | 1.9 | 1.82 | 5.58 | 2.73 | 1.53 |
| CCAGACUUCAAGCACUCGGUC [Fam1B.1 aminoacylation ribozyme variant] | 1.23 | 1.22 | 1.32 | 0.947 | 0.871 | 1.3 |
| CCAGACUUCAAUCAAUCGGUC [Fam1B.1 aminoacylation ribozyme variant] | 1.76 | 1.21 | 1.19 | 34.2 | 21.1 | 1.14 |
| CCAUAAUUCAAGCAAUCGGUC [Fam1B.1 aminoacylation ribozyme variant] | 0.802 | 0.83 | 0.934 | 1.25 | 0.803 | 0.799 |
| CCAUACUUCAAGCAAUCGUUC [Fam1B.1 aminoacylation ribozyme variant] | 0.724 | 0.986 | 0.89 | 1.17 | 0.648 | 0.74 |
| CCAUACUUCAAGCAGUCGGUC [Fam1B.1 aminoacylation ribozyme variant] | 0.907 | 0.978 | 1.04 | 0.922 | 0.754 | 0.911 |
| CCAUACUUCAAGCAUUCGGUC [Fam1B.1 aminoacylation ribozyme variant] | 1.43 | 1.46 | 1.63 | 0.862 | 1.49 | 1.41 |
| CCAUAUUUCAAGCAAUCGGUC [Fam1B.1 aminoacylation ribozyme variant] | 0.92 | 1 | 1.12 | 1.26 | 0.917 | 0.965 |
| CCCCACUUCAAGCAAUUGGUC [Fam1B.1 aminoacylation ribozyme variant] | 0.878 | 0.977 | 0.92 | 1.82 | 1.61 | 0.861 |
| CCUCACUUCAAGCAAUCGGUU [Fam1B.1 aminoacylation ribozyme variant] | 1.7 | 1.61 | 1.34 | 9.36 | 6.83 | 1.45 |
| CCUCACUUCAAGCAAUGGGUC [Fam1B.1 aminoacylation ribozyme variant] | 0.574 | 0.752 | 0.601 | 1.12 | 0.752 | 0.574 |
| CCUCACUUCAAGCACUCGGUC [Fam1B.1 aminoacylation ribozyme variant] | 1.17 | 0.948 | 1.03 | 1.03 | 1.01 | 0.958 |
| CCUCACUUCAAGCCAUCGGUC [Fam1B.1 aminoacylation ribozyme variant] | 0.988 | 0.954 | 0.943 | 1.22 | 0.951 | 0.917 |
| CCUCAUUUCAAGCAAUCGGUC [Fam1B.1 aminoacylation ribozyme variant] | 1.08 | 1.05 | 1.11 | 5.96 | 2.75 | 1.07 |
| CGACACGUCAAGCAAUCGGUC [Fam1B.1 aminoacylation ribozyme variant] | 1.03 | 1.64 | 1.6 | 0.887 | 1.34 | 1.21 |
| CGACACUUCAAGCAACCGGUC [Fam1B.1 aminoacylation ribozyme variant] | 0.733 | 1.15 | 1.05 | 1.5 | 1.08 | 1.33 |
| CGACUCCAAACAAUCGGUCUG [Fam1A.1 aminoacylation ribozyme variant] | 1.14 | 1.46 | 1.1 | 3.55 | 3.11 | 1.18 |

| Sequence | self-aminoacylation (biotinyl-Leu-oxazolone) | self-aminoacylation (biotinyl-Val-oxazolone) | self-aminoacylation (biotinyl-Ile-oxazolone) | self-aminoacylation (biotinyl-Phe-oxazolone) | self-aminoacylation (biotinyl-Trp-oxazolone) | self-aminoacylation (biotinyl-Met-oxazolone) |
| --- | --- | --- | --- | --- | --- | --- |
| CGACUUCAAACAAUCGUUCUG [Fam1A.1 aminoacylation ribozyme variant] | 0.686 | 0.674 | 0.773 | 1.74 | 0.925 | 0.677 |
| CGACUUCAAACAGUCGGUCUG [Fam1A.1 aminoacylation ribozyme variant] | 1.63 | 1.84 | 1.83 | 10 | 1.98 | 1.71 |
| CGACUUGAAACAAUCGGUCUG [Fam1A.1 aminoacylation ribozyme variant] | 1.54 | 1.57 | 1.34 | 0.925 | 1.54 | 1.25 |
| CUAAUUCAAACACUCGGUCUG [Fam1A.1 aminoacylation ribozyme variant] | 0.913 | 0.955 | 0.918 | 0.867 | 0.625 | 0.846 |
| CUAAUUCGAACAAUCGGUCUG [Fam1A.1 aminoacylation ribozyme variant] | 0.815 | 0.674 | 0.625 | 0.492 | 0.472 | 0.646 |
| CUACACGUCAAGCAAUCGGUC [Fam1B.1 aminoacylation ribozyme variant] | 1.14 | 0.919 | 0.902 | 0.617 | 0.808 | 0.979 |
| CUACACUGCAAGCAAUCGGUC [Fam1B.1 aminoacylation ribozyme variant] | 0.85 | 0.932 | 0.977 | 0.895 | 0.703 | 0.756 |
| CUACACUUCAAGCAUUCGGUC [Fam1B.1 aminoacylation ribozyme variant] | 0.87 | 1.05 | 1.17 | 1.04 | 1.11 | 0.873 |
| CUACAUCAAACAAUCGGUAUG [Fam1A.1 aminoacylation ribozyme variant] | 0.673 | 0.594 | 0.737 | 0.996 | 0.658 | 0.832 |
| CUACAUCAAACAAUCGGUCUG [Fam1A.1 aminoacylation ribozyme variant] | 0.736 | 0.82 | 0.799 | 2.27 | 1.41 | 0.759 |
| CUACAUCAAACAAUCGUUCUG [Fam1A.1 aminoacylation ribozyme variant] | 0.831 | 0.691 | 0.708 | 0.758 | 0.423 | 0.634 |
| CUACAUCAAACAAUGGGUCUG [Fam1A.1 aminoacylation ribozyme variant] | 1.12 | 1.02 | 1.25 | 2.95 | 0.805 | 1.45 |
| CUACCUCAGACAAUCGGUCUG [Fam1A.1 aminoacylation ribozyme variant] | 0.653 | 0.985 | 0.992 | 0.589 | 0.724 | 0.835 |
| CUACCUUAAACAAUCGGUCUG [Fam1A.1 aminoacylation ribozyme variant] | 0.913 | 0.797 | 0.796 | 0.804 | 0.987 | 0.994 |
| CUACGUCAAACAAUCGGACUG [Fam1A.1 aminoacylation ribozyme variant] | 1.19 | 1.37 | 1.42 | 0.786 | 1.48 | 1.14 |
| CUACGUCAAACAAUCGGUCUA [Fam1A.1 aminoacylation ribozyme variant] | 1.14 | 1.19 | 1.03 | 1.03 | 1.33 | 1.1 |
| CUACGUCAAACUAUCGGUCUG [Fam1A.1 aminoacylation ribozyme variant] | 1.72 | 1.76 | 1.58 | 5.88 | 1.58 | 1.95 |
| CUACGUCAAUCAAUCGGUCUG [Fam1A.1 aminoacylation ribozyme variant] | 1.33 | 1.41 | 1.23 | 0.909 | 1.3 | 1.11 |
| CUACGUCACACAAUCGGUCUG [Fam1A.1 aminoacylation ribozyme variant] | 0.98 | 0.962 | 0.999 | 0.794 | 0.986 | 0.943 |
| CUACUACAAACAACCGGUCUG [Fam1A.1 aminoacylation ribozyme variant] | 0.845 | 1.14 | 1.19 | 1.12 | 0.954 | 0.601 |
| CUACUACAAACAAUCGGUCGG [Fam1A.1 aminoacylation ribozyme variant] | 0.843 | 0.759 | 0.776 | 0.903 | 0.512 | 0.99 |
| CUACUACAAACAAUCGGUCUA [Fam1A.1 aminoacylation ribozyme variant] | 0.625 | 0.868 | 0.721 | 1.05 | 0.63 | 0.623 |
| CUACUCCAAACAAUCGGGCUG [Fam1A.1 aminoacylation ribozyme variant] | 1.29 | 1.01 | 1.36 | 1.02 | 1.14 | 1.61 |
| CUACUCCAAACAAUCGGUCCG [Fam1A.1 aminoacylation ribozyme variant] | 0.961 | 0.895 | 0.891 | 1.11 | 1.54 | 1.06 |
| CUACUCCAAACCAUCGGUCUG [Fam1A.1 aminoacylation ribozyme variant] | 1.03 | 0.971 | 1.1 | 1.16 | 1.01 | 0.961 |
